Assay results from EP2545914A1, “2-amino-2-oxoethyl trans-3-[5-(6-methoxy-naphtalen-1-yl)-1,3-dioxan-2-yl]propyl-carbamate for use in the treatment of persistent cancer pain” (SANOFI, priority 2011, dated 2013).

Test system: UDP-glucuronosyl transferase
Assay: in vitro
Conditions: human, HLM 0.5 mg/mL, morphine 0.1-7.5 mM

## CN1CC[C@]23c4c5ccc(O)c4O[C@H]2[C@@H](O)C=C[C@H]3[C@H]1C5 [Morphine]
pH 7.4, Km (M3G)
  Km at 30 min: 2590 µM
pH 7.4, Km (M6G)
  Km at 30 min: 2110 µM
